Source: article doi:10.1101/2020.03.23.003210
Results are given in words; binding and its absence hold for the method and conditions named. In cells and extracts the contact can be indirect. A yes stands for co-enrichment or nearness to the bait. Other partners may have been found. No binding means not detected with the bait.

By UniProt entry, the sequences of proteins in these tests, tags left out.
UniProt Q9UJX6, whole entry: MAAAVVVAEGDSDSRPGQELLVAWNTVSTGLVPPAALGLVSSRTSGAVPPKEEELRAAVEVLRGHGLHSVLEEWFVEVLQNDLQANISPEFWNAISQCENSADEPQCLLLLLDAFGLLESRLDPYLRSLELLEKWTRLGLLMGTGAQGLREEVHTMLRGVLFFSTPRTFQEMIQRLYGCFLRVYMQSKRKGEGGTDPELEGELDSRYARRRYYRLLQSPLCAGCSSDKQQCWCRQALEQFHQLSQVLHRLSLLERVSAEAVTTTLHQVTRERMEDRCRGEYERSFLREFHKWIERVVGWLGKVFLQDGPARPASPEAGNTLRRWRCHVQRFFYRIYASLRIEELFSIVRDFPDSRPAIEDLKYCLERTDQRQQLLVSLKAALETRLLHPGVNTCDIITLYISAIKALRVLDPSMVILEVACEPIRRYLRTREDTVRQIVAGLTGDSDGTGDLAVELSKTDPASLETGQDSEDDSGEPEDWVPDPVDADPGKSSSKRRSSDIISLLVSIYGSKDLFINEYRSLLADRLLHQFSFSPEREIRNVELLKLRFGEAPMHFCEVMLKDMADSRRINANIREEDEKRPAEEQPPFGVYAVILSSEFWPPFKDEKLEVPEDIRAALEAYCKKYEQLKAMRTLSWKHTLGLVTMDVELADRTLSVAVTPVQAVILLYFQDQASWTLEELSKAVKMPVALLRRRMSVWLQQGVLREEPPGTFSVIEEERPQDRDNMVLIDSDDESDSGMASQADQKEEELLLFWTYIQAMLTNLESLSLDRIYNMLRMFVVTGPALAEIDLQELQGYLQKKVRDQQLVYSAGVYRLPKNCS
UniProt P30260, whole entry: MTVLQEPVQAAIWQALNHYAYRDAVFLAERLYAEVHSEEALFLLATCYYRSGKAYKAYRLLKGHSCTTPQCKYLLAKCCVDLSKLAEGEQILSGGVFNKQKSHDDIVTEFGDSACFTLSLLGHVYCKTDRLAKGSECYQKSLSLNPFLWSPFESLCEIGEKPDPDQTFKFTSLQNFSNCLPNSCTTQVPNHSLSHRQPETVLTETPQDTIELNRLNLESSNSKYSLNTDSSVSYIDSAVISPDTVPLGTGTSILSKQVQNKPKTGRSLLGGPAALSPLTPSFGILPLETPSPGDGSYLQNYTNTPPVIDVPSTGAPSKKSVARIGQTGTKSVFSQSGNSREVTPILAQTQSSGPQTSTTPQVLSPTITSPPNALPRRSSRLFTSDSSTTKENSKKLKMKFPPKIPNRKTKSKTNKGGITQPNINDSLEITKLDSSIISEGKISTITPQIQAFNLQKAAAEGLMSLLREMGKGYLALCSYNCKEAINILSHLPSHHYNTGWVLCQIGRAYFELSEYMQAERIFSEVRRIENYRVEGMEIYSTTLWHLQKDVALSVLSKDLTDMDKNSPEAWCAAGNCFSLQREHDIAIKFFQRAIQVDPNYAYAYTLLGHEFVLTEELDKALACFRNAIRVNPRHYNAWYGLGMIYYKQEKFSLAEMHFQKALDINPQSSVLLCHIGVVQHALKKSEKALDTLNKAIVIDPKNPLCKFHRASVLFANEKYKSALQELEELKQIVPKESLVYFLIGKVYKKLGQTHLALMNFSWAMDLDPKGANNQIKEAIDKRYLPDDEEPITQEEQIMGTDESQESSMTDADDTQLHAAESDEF

Tests used:
BioID2-APC2 = BioID2-APC2 (UniProt Q9UJX6); test: proximity labelling
APC3-BioID2 = APC3-BioID2 (UniProt P30260); test: proximity labelling

Molecule | binding (BioID2-APC2) | binding (APC3-BioID2)
pericentriolar material 1 (PCM1) (from UniProt Q15154 1-2024) | no binding | no binding
Cep350 (from UniProt Q5VT06 1-3117) | binds | binds
Cep192 (from UniProt Q8TEP8 1-2537) | binds | binds
Cep152 (from UniProt O94986 1-1710) | binds | binds
Cep131 (protein, UniProt Q9UPN4 1-1083) MKGTRAIGSVPERSPAGVDLSLTGLPPPVSRRPGSAATTKPIVRSVSVVTGSEQKRKVLEATGPGGSQAINNLRRSNSTTQVSQPRSGSPRPTEPTDFLMLFEGSPSGKKRPASLSTAPSEKGATWNVLDDQPRGFTLPSNARSSSALDSPAGPRRKECTVALAPNFTANNRSNKGAVGNCVTTMVHNRYTPSERAPPLKSSNQTAPSLNNIIKAATCEGSESSGFGKLPKNVSSATHSARNNTGGSTGLPRRKEVTEEEAERFIHQVNQATVTIQRWYRHQVQRRGAGAARLEHLLQAKREEQRQRSGEGTLLDLHQQKEAARRKAREEKARQARRAAIQELQQKRALRAQKASTAERGPPENPRETRVPGMRQPAQELSPTPGGTAHQALKANNTGGGLPAAGPGDRCLPTSDSSPEPQQPPEDRTQDVLAQDAAGDNLEMMAPSRGSAKSRGPLEELLHTLQLLEKEPDVLPRPRTHHRGRYAWASEVTTEDDASSLTADNLEKFGKLSAFPEPPEDGTLLSEAKLQSIMSFLDEMEKSGQDQLDSQQEGWVPEAGPGPLELGSEVSTSVMRLKLEVEEKKQAMLLLQRALAQQRDLTARRVKETEKALSRQLQRQREHYEATIQRHLAFIDQLIEDKKVLSEKCEAVVAELKQEDQRCTERVAQAQAQHELEIKKLKELMSATEKARREKWISEKTKKIKEVTVRGLEPEIQKLIARHKQEVRRLKSLHEAELLQSDERASQRCLRQAEELREQLEREKEALGQQERERARQRFQQHLEQEQWALQQQRQRLYSEVAEERERLGQQAARQRAELEELRQQLEESSSALTRALRAEFEKGREEQERRHQMELNTLKQQLELERQAWEAGRTRKEEAWLLNREQELREEIRKGRDKEIELVIHRLEADMALAKEESEKAAESRIKRLRDKYEAELSELEQSERKLQERCSELKGQLGEAEGENLRLQGLVRQKERALEDAQAVNEQLSSERSNLAQVIRQEFEDRLAASEEETRQAKAELATLQARQQLELEEVHRRVKTALARKEEAVSSLRTQHEAAVKRADHLEELLEQHRRPTPSTK | binds | binds
